Some of the results follow. Many values rest on one well or one pass, so single values are uncertain.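 Imaging used 1,536-well plates; nuclei positive for cleaved PARP by antibody were divided by total DNA-stained nuclei to yield the apoptosis fraction. Doses for screening kept most cells viable, and cell lines differ markedly in resting and induced cleaved-PARP levels.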
The compounds below were run on MeWo (assay: cleaved PARP positive nuclei fraction relative to DMSO control; melanoma cells; higher = more apoptosis). Details: library dose: low library concentration; 72 h.

Compound | cleaved PARP positive nuclei fraction
CO[C@H]1C[C@@H]2CC[C@@H](C)[C@@](O)(O2)C(=O)C(=O)N2CCCC[C@H]2C(=O)O[C@H]([C@H](C)C[C@@H]2CC[C@@H](OCCO)[C@H](OC)C2)CC(=O)[C@H](C)/C=C(\C)[C@@H](O)[C@@H](OC)C(=O)[C@H](C)C[C@H](C)/C=C/C=C/C=C/1C [everolimus] + C=CCn1c(=O)c2cnc(Nc3ccc(N4CCN(C)CC4)cc3)nc2n1-c1cccc(C(C)(C)O)n1 [MK1775] (first compound 0.02 µM, partner dose 0.02 µM) | 47.9%
CO[C@H]1C[C@@H]2CC[C@@H](C)[C@@](O)(O2)C(=O)C(=O)N2CCCC[C@H]2C(=O)O[C@H]([C@H](C)C[C@@H]2CC[C@@H](OCCO)[C@H](OC)C2)CC(=O)[C@H](C)/C=C(\C)[C@@H](O)[C@@H](OC)C(=O)[C@H](C)C[C@H](C)/C=C/C=C/C=C/1C [everolimus] + Nc1ncn([C@H]2C[C@H](O)[C@@H](CO)O2)c(=O)n1 [decitabine] (first compound 0.02 µM, partner dose 0.1 µM) | 121%
CO[C@H]1C[C@@H]2CC[C@@H](C)[C@@](O)(O2)C(=O)C(=O)N2CCCC[C@H]2C(=O)O[C@H]([C@H](C)C[C@@H]2CC[C@@H](OCCO)[C@H](OC)C2)CC(=O)[C@H](C)/C=C(\C)[C@@H](O)[C@@H](OC)C(=O)[C@H](C)C[C@H](C)/C=C/C=C/C=C/1C [everolimus] + CC(C)(C)c1cnc(CSc2cnc(NC(=O)C3CCNCC3)s2)o1 [SNS-032] (first compound 0.02 µM, partner dose 0.01 µM) | 74.5%
